Reference: publication PMC7333352

Legend:
[1] = target: T1, GFP-VP122 (Singapore grouper iridovirus (SGIV)) (UniProt Q5YFE3); test: co-IP; GS cells co-transfected with HA-Atg5 or HA-LC3 and a GFP fusion, lysed 36 h after co-transfection in IP lysis buffer with protease inhibitors; anti-GFP on Dynabeads Protein G; blots with anti-GFP and anti-HA
T1 sequence: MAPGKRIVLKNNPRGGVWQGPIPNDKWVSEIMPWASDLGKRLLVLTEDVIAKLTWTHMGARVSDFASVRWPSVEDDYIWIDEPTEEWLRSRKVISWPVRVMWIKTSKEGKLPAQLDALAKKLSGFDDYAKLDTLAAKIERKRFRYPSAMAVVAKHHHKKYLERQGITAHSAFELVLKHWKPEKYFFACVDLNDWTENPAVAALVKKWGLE

[2] = target: T2, GFP-VP132 (Singapore grouper iridovirus (SGIV)) (UniProt Q5YFD3); test: as above
T2 sequence: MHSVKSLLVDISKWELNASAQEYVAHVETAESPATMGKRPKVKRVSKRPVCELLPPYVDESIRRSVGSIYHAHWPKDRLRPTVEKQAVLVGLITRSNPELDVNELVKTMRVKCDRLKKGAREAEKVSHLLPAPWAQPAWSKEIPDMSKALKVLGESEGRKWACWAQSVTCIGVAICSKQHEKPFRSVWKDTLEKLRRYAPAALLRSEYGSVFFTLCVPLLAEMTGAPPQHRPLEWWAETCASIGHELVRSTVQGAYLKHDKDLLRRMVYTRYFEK

Substance	binding [1]	binding [2]
HA-Atg5	binds	binds
HA-LC3	no binding	no binding

No constants are given. Whether binding was seen depends on the method and setting. Binding seen in cells or lysates may run through a third protein. A result given as binding can be weak or reduced; the word gives no strength. Sequences can lack the tags named with a protein.
